US8410113B2, “(2R)-1-(3-chloro-2-pyrazinyl)-2-methylpiperazine and salts thereof” (Biovitrum AB (publ), priority 2002, dated 2013)
Some of these results come from one statement about several compounds together. At least one structure is not confirmed: it was looked up by name or label, or the drawing left a doubt.

assay: Hygroscopicity (DVS, storage at RT/different RHs and at 40° C./75% RH); assay type: physicochemical; details: salts of Example 2A; RT/90% RH
Procedure: Hygroscopicity (DVS, Storage at RT/Different RHs and at 40° C./75% RH)

Row | Compound | equilibrium moisture contents [%]
1 | C[C@@H]1CNCCN1c1nccnc1OCCOc1cccnc1.O=C(O)C[C@H](O)C(=O)O [Example 3A, (2R)-methyl-1-{3-[2-(3-pyridinyloxy)ethoxy]-2-pyrazinyl}piperazine, L-malate salt] | ≤ 5
2 | C[C@@H]1CNCCN1c1nccnc1OCCOc1cccnc1.O=C(O)c1ccccc1 [benzoate, (2R)-methyl-1-{3-[2-(3-pyridinyloxy)ethoxy]-2-pyrazinyl}piperazine, benzoate] | ≤ 5
3 | (2R)-methyl-1-{3-[2-(3-pyridinyloxy)ethoxy]-2-pyrazinyl}piperazine, cinnamate | ≤ 5
